Data published in PMC10840333.
No constants are given. Whether binding was seen depends on the method and setting. In cells and extracts the contact can be indirect. Some results given as binding are weak or reduced against the parent protein; the word gives no strength.

The chains behind the UniProt entries cited, without tags or fusion partners.
UniProt P08684: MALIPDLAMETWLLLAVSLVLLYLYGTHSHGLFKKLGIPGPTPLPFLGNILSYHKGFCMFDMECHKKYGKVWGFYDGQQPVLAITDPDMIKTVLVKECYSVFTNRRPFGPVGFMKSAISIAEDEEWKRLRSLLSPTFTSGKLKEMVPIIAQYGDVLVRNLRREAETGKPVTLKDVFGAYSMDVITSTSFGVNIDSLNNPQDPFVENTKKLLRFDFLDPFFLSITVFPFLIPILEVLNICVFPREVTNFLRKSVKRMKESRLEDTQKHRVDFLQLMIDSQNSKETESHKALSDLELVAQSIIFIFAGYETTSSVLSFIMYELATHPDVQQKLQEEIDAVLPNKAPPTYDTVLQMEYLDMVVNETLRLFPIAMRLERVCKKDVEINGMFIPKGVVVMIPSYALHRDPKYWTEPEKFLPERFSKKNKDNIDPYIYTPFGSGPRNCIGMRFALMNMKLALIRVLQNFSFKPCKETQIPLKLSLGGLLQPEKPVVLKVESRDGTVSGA
UniProt P10635: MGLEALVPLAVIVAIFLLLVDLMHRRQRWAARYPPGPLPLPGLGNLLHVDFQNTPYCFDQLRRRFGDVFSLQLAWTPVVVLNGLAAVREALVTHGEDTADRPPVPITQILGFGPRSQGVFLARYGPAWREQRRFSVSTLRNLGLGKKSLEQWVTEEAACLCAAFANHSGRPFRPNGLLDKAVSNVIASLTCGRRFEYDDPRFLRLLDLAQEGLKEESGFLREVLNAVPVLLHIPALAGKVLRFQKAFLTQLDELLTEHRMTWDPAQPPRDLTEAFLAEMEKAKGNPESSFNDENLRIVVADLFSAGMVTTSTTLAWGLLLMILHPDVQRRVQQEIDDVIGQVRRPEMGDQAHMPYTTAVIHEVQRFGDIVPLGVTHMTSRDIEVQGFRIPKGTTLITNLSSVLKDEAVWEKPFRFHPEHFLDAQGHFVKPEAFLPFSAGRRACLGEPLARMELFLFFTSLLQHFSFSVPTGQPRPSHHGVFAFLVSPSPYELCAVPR
UniProt P04406: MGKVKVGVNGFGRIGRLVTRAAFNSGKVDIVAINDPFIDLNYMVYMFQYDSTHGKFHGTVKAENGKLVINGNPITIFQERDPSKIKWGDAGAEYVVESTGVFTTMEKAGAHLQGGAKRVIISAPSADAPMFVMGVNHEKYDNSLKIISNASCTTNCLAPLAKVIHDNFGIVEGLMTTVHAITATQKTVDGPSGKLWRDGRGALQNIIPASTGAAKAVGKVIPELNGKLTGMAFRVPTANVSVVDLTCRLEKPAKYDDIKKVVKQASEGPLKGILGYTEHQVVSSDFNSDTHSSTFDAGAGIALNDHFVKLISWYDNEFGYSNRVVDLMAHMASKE

Assays:
[1] = biological target: CYP3A4 induced by rifampicin in HEPG2 cells (human (endogenous in HEPG2)) (UniProt P08684); test: co-IP; HEPG2 cell supernatants, antibody pulldown on protein G-Sepharose, Western blot for GAPDH and Hsp90; CYP3A4 induced by rifampicin, CYP2D6 transfected; cells heme-deficient, cultured normally, or given hemin
[2] = biological target: FLAG-MYC tagged CYP2D6 expressed in HEPG2 cells (human) (UniProt P10635); test: as above
[3] = biological target: FLAG and MYC-tagged human CYP2D6 (human) (UniProt P10635); test: co-IP; HEK293T cell supernatants (1 mg protein), anti-FLAG antibody and protein G-Sepharose at 4 °C overnight; washed with 40 mM EPPS, 150 mM NaCl, 10% glycerol, 0.5% Nonidet P-40, pH 7.6; Western blot for GAPDH and Hsp90; cells heme-deficient (SA, heme-depleted serum), cultured normally, or given 5 μM hemin
[4] = biological target: FLAG and MYC-tagged human CYP3A4 (human) (UniProt P08684); test: as above

Row | binding [1] | binding [2] | binding [3] | binding [4] | Substance
1 | binds | binds |  |  | GAPDH (endogenous, HEPG2) (from UniProt P04406 1-335) (enzyme)
2 |  |  | binds | binds | GAPDH (endogenous, HEK293T) (from UniProt P04406 1-335) (enzyme)
